Measurements: patent US20100184652A1
Results are given in words; binding and its absence hold for the method and conditions named. For some assays here: In cells and extracts the contact can be indirect. Some entries that bind do so weakly or less than the wild type.

Sequences of proteins named here, by UniProt entry; tags and fusion partners are left off. A change or cut given only in a name is not applied to a line headed by its entry.
UniProt P00519: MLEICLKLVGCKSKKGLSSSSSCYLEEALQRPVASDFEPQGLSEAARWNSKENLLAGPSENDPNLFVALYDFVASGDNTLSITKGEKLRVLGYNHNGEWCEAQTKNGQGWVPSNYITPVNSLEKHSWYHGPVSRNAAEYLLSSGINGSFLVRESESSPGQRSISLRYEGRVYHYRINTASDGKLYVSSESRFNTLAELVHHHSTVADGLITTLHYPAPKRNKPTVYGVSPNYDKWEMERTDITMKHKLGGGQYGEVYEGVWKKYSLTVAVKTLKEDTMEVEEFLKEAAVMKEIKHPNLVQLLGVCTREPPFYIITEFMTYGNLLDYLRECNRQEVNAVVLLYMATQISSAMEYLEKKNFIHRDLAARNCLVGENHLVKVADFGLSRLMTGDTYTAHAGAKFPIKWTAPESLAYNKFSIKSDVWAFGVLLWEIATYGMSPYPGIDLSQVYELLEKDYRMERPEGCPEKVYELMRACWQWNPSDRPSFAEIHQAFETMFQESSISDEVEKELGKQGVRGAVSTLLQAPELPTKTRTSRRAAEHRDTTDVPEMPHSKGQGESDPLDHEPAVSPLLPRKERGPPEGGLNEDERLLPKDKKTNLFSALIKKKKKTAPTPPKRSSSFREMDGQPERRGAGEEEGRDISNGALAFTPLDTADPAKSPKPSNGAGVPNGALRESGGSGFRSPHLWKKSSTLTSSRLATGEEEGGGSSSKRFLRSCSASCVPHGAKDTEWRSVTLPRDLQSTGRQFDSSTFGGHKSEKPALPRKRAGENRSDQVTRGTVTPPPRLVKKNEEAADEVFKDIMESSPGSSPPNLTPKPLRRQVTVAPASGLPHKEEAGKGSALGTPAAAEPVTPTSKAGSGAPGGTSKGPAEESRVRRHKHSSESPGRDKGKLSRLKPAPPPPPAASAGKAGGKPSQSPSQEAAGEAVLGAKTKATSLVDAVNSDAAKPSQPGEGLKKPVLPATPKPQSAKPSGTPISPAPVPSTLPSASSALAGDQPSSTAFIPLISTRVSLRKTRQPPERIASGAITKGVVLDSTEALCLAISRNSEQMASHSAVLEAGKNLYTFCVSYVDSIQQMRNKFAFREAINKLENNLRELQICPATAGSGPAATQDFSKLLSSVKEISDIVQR
UniProt Q8IZP0: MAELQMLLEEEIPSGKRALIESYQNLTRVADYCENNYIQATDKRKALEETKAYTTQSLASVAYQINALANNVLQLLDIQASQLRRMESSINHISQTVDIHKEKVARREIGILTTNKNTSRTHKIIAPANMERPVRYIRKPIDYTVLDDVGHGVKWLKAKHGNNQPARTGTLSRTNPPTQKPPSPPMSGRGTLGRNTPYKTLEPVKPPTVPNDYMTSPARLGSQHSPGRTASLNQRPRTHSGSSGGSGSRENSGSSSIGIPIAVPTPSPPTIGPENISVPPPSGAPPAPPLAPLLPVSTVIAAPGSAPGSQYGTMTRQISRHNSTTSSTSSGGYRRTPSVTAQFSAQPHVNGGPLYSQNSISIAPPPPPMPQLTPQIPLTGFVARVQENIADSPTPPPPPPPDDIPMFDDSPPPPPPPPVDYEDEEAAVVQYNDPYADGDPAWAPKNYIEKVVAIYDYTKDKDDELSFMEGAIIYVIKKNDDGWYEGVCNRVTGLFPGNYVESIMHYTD

Experiments:
[1] = target: c-Abl kinase of LnCAP cells (UniProt P00519); assay: co-immunoprecipitation from LnCAP and Abi1(+) cell lysates, western blot
[2] = target: GST fusion polypeptide of Abi1 N1-187 (human) (UniProt Q8IZP0); assay: blot overlay of GST-Abi1 polypeptides with biotinylated GST-Abl-SH3

Row | Substance | binding [1] | binding [2]
1 | Abi1 (Abi1/Hssh3bp1, isoform 2), wild type, untagged (from UniProt Q8IZP0 1-508) | binds | 
2 | biotinylated GST-Abl-SH3 domain (from UniProt P00519 80-140) |  | binds
